These are yes or no findings as the source states them, for the method shown. Some binding calls cover weakened binding; strength is not graded here.
Legend:
Test in all cases: far-Western, overlay or dot blot; two-fold dilutions of the partner proteins spotted (54 to 1.7 pmol) on nitrocellulose; blocked with 5% milk PBS-T; 0.2 μM purified RecF in 5% milk PBS-T overnight at 4°C; detected with anti-RecF; control membrane without RecF subtracted; both purified
[1] = target: DnaG RNA primase (purified) (E. coli) (UniProt P0ABS5)
[2] = target: BSA (bovine (by the name BSA)) (UniProt P02769)
[3] = substrate: SSB protein (purified) (E. coli) (UniProt P0AGE0)

Sequences of proteins named here, by UniProt entry; tags and fusion partners are left off. Residues count along the entry.
UniProt P0ABS5: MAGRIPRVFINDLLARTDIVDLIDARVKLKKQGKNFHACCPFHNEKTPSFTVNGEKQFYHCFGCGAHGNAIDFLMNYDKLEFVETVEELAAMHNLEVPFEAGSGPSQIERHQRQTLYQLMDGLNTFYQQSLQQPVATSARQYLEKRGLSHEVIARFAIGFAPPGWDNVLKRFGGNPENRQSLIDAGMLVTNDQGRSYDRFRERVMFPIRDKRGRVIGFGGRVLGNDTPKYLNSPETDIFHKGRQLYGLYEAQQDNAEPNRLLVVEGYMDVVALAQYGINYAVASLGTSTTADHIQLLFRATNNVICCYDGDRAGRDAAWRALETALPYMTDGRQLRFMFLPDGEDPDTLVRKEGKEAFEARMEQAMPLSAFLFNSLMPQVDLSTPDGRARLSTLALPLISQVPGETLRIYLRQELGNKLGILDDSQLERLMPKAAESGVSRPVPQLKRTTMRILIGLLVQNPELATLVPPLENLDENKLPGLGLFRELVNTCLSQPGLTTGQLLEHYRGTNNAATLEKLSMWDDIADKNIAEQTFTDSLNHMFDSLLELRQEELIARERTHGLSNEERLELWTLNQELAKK
UniProt P02769, residues 25-607: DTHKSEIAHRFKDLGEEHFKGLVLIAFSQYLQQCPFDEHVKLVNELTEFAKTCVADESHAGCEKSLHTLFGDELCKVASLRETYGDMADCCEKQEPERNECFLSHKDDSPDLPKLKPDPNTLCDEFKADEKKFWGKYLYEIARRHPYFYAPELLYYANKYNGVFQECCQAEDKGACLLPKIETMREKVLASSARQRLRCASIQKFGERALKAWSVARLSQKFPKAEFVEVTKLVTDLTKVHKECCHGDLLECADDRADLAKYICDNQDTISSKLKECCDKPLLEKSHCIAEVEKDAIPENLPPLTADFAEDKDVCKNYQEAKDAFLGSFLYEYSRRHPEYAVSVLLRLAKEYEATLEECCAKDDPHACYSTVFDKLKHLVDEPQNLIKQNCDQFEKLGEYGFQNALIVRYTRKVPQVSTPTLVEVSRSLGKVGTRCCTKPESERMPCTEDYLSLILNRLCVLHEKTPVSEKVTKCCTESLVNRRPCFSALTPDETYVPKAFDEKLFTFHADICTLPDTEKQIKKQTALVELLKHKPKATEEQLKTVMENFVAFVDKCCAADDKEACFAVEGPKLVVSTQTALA
UniProt P0AGE0: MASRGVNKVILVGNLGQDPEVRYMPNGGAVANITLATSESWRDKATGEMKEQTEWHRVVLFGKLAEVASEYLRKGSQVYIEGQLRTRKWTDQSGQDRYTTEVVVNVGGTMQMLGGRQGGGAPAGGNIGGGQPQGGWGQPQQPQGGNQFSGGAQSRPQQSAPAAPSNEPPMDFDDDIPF

B1: RecF protein (purified) (protein, UniProt P0A7H0 1-357)
chain: MSLTRLLIRDFRNIETADLALSPGFNFLVGANGSGKTSVLEAIYTLGHGRAFRSLQIGRVIRHEQEAFVLHGRLQGEERETAIGLTKDKQGDSKVRIDGTDGHKVAELAHLMPMQLITPEGFTLLNGGPKYRRAFLDWGCFHNEPGFFTAWSNLKRLLKQRNAALRQVTRYEQLRPWDKELIPLAEQISTWRAEYSAGIAADMADTCKQFLPEFSLTFSFQRGWEKETEYAEVLERNFERDRQLTYTAHGPHKADLRIRADGAPVEDTLSRGQLKLLMCALRLAQGEFLTRESGRRCLYLIDDFASELDDERRGLLASRLKATQSQVFVSAISAEHVIDMSDENSKMFTVEKGKITD
[1]
  binding: binds weakly
[2]
  binding: no binding (tested: 0.2 μM RecF; 54 to 1.7 pmol spotted)
[3]
  binding: no binding (tested: 0.2 μM RecF; 54 to 1.7 pmol spotted)
